# The supplement of paper PMC12823440, “Inhibitors supercharge kinase turnover through native proteolytic circuits” (Nature, 2025)
# By UniProt entry, the sequences of proteins in these tests, tags left out. Where a name states a change or a piece, a line headed by the entry shows the natural chain unless it says otherwise.
# UniProt Q9BUB5: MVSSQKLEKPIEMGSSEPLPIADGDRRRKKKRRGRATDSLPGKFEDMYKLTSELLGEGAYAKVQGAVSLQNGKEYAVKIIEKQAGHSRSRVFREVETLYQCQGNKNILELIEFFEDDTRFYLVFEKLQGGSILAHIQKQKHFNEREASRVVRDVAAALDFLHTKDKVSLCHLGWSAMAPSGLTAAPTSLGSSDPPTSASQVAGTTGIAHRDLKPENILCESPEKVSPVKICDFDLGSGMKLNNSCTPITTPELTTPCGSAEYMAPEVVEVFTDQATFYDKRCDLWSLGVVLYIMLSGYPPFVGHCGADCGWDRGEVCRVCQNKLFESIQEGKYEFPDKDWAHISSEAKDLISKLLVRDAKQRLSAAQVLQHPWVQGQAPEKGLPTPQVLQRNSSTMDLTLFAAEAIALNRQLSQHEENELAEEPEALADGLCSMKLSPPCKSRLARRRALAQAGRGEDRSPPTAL
# UniProt Q16620, whole entry, looked up: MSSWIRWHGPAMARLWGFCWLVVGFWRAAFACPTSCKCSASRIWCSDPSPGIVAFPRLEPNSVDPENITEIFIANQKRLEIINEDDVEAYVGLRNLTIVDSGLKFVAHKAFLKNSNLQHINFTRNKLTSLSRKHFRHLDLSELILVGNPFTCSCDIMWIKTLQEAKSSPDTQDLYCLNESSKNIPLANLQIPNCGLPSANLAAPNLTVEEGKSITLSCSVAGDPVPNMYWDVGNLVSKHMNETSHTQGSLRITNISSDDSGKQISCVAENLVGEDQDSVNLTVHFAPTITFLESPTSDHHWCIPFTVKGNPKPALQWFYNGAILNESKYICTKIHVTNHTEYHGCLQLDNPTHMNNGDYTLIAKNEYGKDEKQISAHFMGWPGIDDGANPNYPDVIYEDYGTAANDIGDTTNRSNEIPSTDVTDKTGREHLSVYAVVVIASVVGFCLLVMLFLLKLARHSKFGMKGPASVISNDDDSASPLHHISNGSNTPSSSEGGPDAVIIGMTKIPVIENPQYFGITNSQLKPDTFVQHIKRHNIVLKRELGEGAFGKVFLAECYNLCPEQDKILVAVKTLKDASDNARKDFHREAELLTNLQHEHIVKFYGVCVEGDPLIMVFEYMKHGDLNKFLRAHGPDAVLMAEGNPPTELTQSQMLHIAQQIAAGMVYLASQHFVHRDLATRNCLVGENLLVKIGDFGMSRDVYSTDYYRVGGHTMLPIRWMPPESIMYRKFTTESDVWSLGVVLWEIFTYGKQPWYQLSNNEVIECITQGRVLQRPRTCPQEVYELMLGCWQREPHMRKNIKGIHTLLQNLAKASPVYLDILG
# Some of the results follow. The calls rarely recur for the same compound in another form.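 In K562 cells expressing nanoluciferase-fused kinases, luminescence was recorded at 4 h intervals between 2 and 18 h, normalized as percent of control with DMSO at 100% and a positive control at 0%. A significant (2 sigma) signal drop marks a time point as decreased. The authors' rule for a hit is not shown and takes in more than the number of time points.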
# Biological target: MKNK1 (UniProt Q9BUB5)
# Experiment: number of time points (of 5) at which kinase-Nluc abundance scored as decreased, DMSO-normalised (count); higher = more persistent destabilization
# Settings: K562; 2-18 h
row,Structure (SMILES),number of time points
1,COC(=O)Nc1ccc(-c2nc(N3CCOCC3)c3cnn(C4CCN(Cc5cccnc5)CC4)c3n2)cc1 (10 µM),0
2,N[C@@H]1CCCN(c2c(/C=C3\SC(=O)NC3=O)cccc2-c2ccccc2)C1 (10 µM),0
3,Nc1nc(N)c2nc(-c3cccc(O)c3)c(-c3cccc(O)c3)nc2n1 (10 µM),0
4,Cn1ncc(NC(=O)c2nc(-c3c(F)cccc3F)sc2N)c1N1CC[C@@H](N)[C@H](F)CC1 (10 µM),0
5,C=C1C(=O)[C@@]23[C@H](O)C[C@@H]4C(C)(C)C(=O)CC[C@@]4(C)[C@@H]2CC[C@@H]1[C@H]3O [Glaucocalyxin A] (2.5 µM),0
6,O=C(NCCO)c1cc(C(=O)NCCO)cc(C(=O)NCCO)c1 (10 µM),0
7,CCC(=O)Nc1cccc(Oc2nc(Nc3ccc(N4CCN(C)CC4)cc3OC)ncc2Cl)c1 (10 µM),0
8,Cc1nn(C)cc1-c1nc2c(N3CCN(Cc4ccc(Cl)cc4)CC3)c(Cl)cnc2[nH]1 (10 µM),0
9,CC(C)Oc1ccc(F)c(-c2cnc(N)c(C(=O)Nc3cnccc3N3CCC[C@@H](C(=O)O)C3)n2)c1 (2 µM),0
10,Nc1ncc(C(=O)NC2CN(C(=O)C3CC3)C2)c2ccc(-c3cccc(F)c3)nc12 (2 µM),0
11,O=C(ON=C1c2ccccc2-c2nc3ccccc3nc21)c1ccco1 (2.5 µM),0
12,CC(C)=CC[C@@H](O)C1=CC(=O)c2c(O)ccc(O)c2C1=O [Shikonin] (10 µM),0
13,COC(=O)Nc1ccc(-c2nc(N3CCOCC3)c3cnn(C4CCN(C(=O)OC)CC4)c3n2)cc1 (10 µM),0
14,CNC(=O)c1ccc2c(c1)ncn2-c1ccc(CC(=O)OC(C)(C)C)cc1 (10 µM),0
15,O=C1CC[C@H](NC(=O)Cc2ccccc2)C(=O)N1 [Antineoplaston A10] (10 µM),0
16,COCCOCCc1c(C)c2cc(OC)c(O)c(C=O)c2oc1=O (10 µM),0
17,Cc1ccc(C(=O)NC2CC2)cc1-n1ncc(C(=O)c2cccc(C#N)c2)c1N [Acumapimod] (10 µM),0
18,O=C(NCCN1CCOCC1)Nc1nc2ccc(Sc3nnc4ccc(-c5ccc(F)cc5)nn34)cc2s1 (10 µM),0
19,COc1cc(F)ccc1-c1ncnc(Nc2cccc(C[S@](C)(=N)=O)c2)n1 [Atuveciclib] (2.5 µM),0
20,CCn1c(-c2nonc2N)nc2c(C#CC(C)(C)O)ncc(OC[C@H]3CCCNC3)c21 (10 µM),0
21,O=c1[nH]ccc2nc(-c3ccc(CN4CCC(c5nc(-c6ccccn6)n[nH]5)CC4)cc3)c(-c3ccccc3)cc12 (10 µM),0
22,COCCOc1ccc2c(c1)ncn2-c1ccc2cccc(N3CCC(N)CC3)c2n1 (10 µM),4
23,CN1CCC(CNc2ccc3ncc(-c4cccc(OC(F)(F)F)c4)n3n2)CC1 (2.5 µM),0
24,Cc1cc(C(=O)NC(C)(C)C)cc(C#Cc2ccc3c4c(oc3c2)C(C)(C)c2cc(NS(C)(=O)=O)ccc2C4=O)n1 (10 µM),0
25,CC(O)(C#Cc1ccc2c(c1)N(c1nc(N)ncc1Cl)CC2)c1nccs1 (stereo not given) (2.5 µM),0
26,COc1cc(-c2cc(-c3ccc(N4CCNCC4)cc3)cnc2C)cc(OC)c1OC (10 µM),0
27,Cn1c(CNc2cccc(C(=O)NCc3ccccc3C(F)(F)F)c2)nnc1-c1ccncc1 (10 µM),0

# Biological target: NTRK2 (UniProt Q16620)
# Experiment: as above
# Settings: K562; 2-18 h
row,Structure (SMILES),number of time points
1,O=Nc1c(-c2c(O)[nH]c3cc(Br)ccc23)[nH]c2ccccc12 [GSK 3 Inhibitor IX] (2.5 µM),4
2,Cn1c2cc([S+](C)[O-])sc2c2cnn(Cc3cccc(N)c3)c(=O)c21 (stereo not given) (2.5 µM),0
3,Cc1cc(-n2c(=O)ccc3c[nH]c4nccc-4c32)ccc1F (10 µM),0
4,CCCn1/c(=N/C(=O)c2cccc(C(N)=O)c2)[nH]c2ccccc21 [Takinib] (10 µM),0
5,CO[C@H]1C[C@@H]2CC[C@@H](C)[C@@](O)(O2)C(=O)C(=O)N2CCCC[C@H]2C(=O)O[C@H]([C@H](C)C[C@@H]2CC[C@@H](OCCO)[C@H](OC)C2)CC(=O)[C@H](C)/C=C(\C)[C@@H](O)[C@@H](OC)C(=O)[C@H](C)C[C@H](C)/C=C/C=C/C=C/1C [Everolimus] (10 µM),0
6,Cc1cccc(-c2[nH]ncc2-c2ccnc3ccccc23)n1 (10 µM),0
7,CC1(N)CCN(c2cccnc2NC(=O)c2nc(-c3ncccc3C(F)(F)F)cnc2N)CC1 [Darovasertib] (10 µM),0
8,COc1cc2c(cc1Nc1ncc(C(N)=O)c(Nc3c(F)cccc3C(F)(F)F)n1)CN(C)CC2 (2.5 µM),0
9,COc1cc2ncnc(Nc3ccc(O)c(Br)c3)c2cc1OC (10 µM),0
10,Nc1nc2c(nc(Br)n2[C@@H]2O[C@@H]3COP(=O)(O)O[C@H]3[C@H]2O)c(=O)[nH]1 [8-Bromo-cGMP (sodium)] (10 µM),0
11,O=c1c2c([nH]n1-c1nc3ccccc3s1)CCCC2 (10 µM),0
12,COC(=O)Nc1ccc(-c2nc(N3CCOCC3)c3cnn(C4CCN(Cc5cccnc5)CC4)c3n2)cc1 (10 µM),0
13,N[C@@H]1CCCN(c2c(/C=C3\SC(=O)NC3=O)cccc2-c2ccccc2)C1 (10 µM),0
14,Nc1nc(N)c2nc(-c3cccc(O)c3)c(-c3cccc(O)c3)nc2n1 (10 µM),0
15,Cn1ncc(NC(=O)c2nc(-c3c(F)cccc3F)sc2N)c1N1CC[C@@H](N)[C@H](F)CC1 (10 µM),0
16,C=C1C(=O)[C@@]23[C@H](O)C[C@@H]4C(C)(C)C(=O)CC[C@@]4(C)[C@@H]2CC[C@@H]1[C@H]3O [Glaucocalyxin A] (2.5 µM),0
17,O=C(NCCO)c1cc(C(=O)NCCO)cc(C(=O)NCCO)c1 (10 µM),0
18,CCC(=O)Nc1cccc(Oc2nc(Nc3ccc(N4CCN(C)CC4)cc3OC)ncc2Cl)c1 (10 µM),0
19,Cc1nn(C)cc1-c1nc2c(N3CCN(Cc4ccc(Cl)cc4)CC3)c(Cl)cnc2[nH]1 (10 µM),0

row,Structure (SMILES),number of time points
1,CC(C)Oc1ccc(F)c(-c2cnc(N)c(C(=O)Nc3cnccc3N3CCC[C@@H](C(=O)O)C3)n2)c1 (2 µM),0
2,Nc1ncc(C(=O)NC2CN(C(=O)C3CC3)C2)c2ccc(-c3cccc(F)c3)nc12 (2 µM),0
3,O=C(ON=C1c2ccccc2-c2nc3ccccc3nc21)c1ccco1 (2.5 µM),0
4,CC(C)=CC[C@@H](O)C1=CC(=O)c2c(O)ccc(O)c2C1=O [Shikonin] (10 µM),0
5,COC(=O)Nc1ccc(-c2nc(N3CCOCC3)c3cnn(C4CCN(C(=O)OC)CC4)c3n2)cc1 (10 µM),0
6,CNC(=O)c1ccc2c(c1)ncn2-c1ccc(CC(=O)OC(C)(C)C)cc1 (10 µM),0
7,O=C1CC[C@H](NC(=O)Cc2ccccc2)C(=O)N1 [Antineoplaston A10] (10 µM),0
8,COCCOCCc1c(C)c2cc(OC)c(O)c(C=O)c2oc1=O (10 µM),0
9,Cc1ccc(C(=O)NC2CC2)cc1-n1ncc(C(=O)c2cccc(C#N)c2)c1N [Acumapimod] (10 µM),0
10,O=C(NCCN1CCOCC1)Nc1nc2ccc(Sc3nnc4ccc(-c5ccc(F)cc5)nn34)cc2s1 (10 µM),0
11,COc1cc(F)ccc1-c1ncnc(Nc2cccc(C[S@](C)(=N)=O)c2)n1 [Atuveciclib] (2.5 µM),0
12,CCn1c(-c2nonc2N)nc2c(C#CC(C)(C)O)ncc(OC[C@H]3CCCNC3)c21 (10 µM),0
13,O=c1[nH]ccc2nc(-c3ccc(CN4CCC(c5nc(-c6ccccn6)n[nH]5)CC4)cc3)c(-c3ccccc3)cc12 (10 µM),0
14,COCCOc1ccc2c(c1)ncn2-c1ccc2cccc(N3CCC(N)CC3)c2n1 (10 µM),1
15,CN1CCC(CNc2ccc3ncc(-c4cccc(OC(F)(F)F)c4)n3n2)CC1 (2.5 µM),0
16,Cc1cc(C(=O)NC(C)(C)C)cc(C#Cc2ccc3c4c(oc3c2)C(C)(C)c2cc(NS(C)(=O)=O)ccc2C4=O)n1 (10 µM),0
17,CC(O)(C#Cc1ccc2c(c1)N(c1nc(N)ncc1Cl)CC2)c1nccs1 (stereo not given) (2.5 µM),0
18,COc1cc(-c2cc(-c3ccc(N4CCNCC4)cc3)cnc2C)cc(OC)c1OC (10 µM),0
19,Cn1c(CNc2cccc(C(=O)NCc3ccccc3C(F)(F)F)c2)nnc1-c1ccncc1 (10 µM),0
